No constants are given. Whether binding was seen depends on the method and setting. Binding seen in cells or lysates may run through a third protein. A yes stands for co-enrichment or nearness to the bait. Other partners may have been found. Where a sequence is shown, tags or fusion partners need not be part of it.
T1: cMyc-A2AR^284–410 (C-terminus of mouse adenosine A2A receptor tagged with cMyc epitope) (mouse) (UniProt Q60613)
T1 sequence: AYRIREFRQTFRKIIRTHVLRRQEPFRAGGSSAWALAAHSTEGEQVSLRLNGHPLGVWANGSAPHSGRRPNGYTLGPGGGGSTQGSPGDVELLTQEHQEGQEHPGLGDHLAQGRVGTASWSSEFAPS

Sequences of proteins named here, by UniProt entry; tags and fusion partners are left off. A change or cut given only in a name is not applied to a line headed by its entry. Residues count along the entry.
UniProt P48036: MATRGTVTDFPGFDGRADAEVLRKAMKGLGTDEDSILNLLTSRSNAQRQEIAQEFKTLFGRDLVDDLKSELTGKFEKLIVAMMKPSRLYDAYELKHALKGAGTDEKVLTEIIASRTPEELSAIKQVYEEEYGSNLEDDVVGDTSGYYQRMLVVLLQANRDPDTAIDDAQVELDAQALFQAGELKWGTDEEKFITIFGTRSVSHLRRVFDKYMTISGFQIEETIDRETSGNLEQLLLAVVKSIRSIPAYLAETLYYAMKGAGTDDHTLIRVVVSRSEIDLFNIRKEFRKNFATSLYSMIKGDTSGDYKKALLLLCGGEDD
UniProt P18242: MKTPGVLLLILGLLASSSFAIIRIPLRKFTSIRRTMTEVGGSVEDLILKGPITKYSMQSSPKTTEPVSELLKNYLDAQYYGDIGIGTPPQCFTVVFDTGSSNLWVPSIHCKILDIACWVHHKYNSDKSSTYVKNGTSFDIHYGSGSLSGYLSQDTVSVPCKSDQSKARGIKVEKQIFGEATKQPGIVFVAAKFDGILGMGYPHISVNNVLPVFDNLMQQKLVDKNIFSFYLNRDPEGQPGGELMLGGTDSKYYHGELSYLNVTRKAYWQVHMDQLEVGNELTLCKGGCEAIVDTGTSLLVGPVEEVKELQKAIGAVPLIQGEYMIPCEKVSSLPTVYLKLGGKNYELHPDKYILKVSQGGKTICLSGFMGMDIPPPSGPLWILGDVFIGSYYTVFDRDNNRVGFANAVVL
UniProt Q9WUM3: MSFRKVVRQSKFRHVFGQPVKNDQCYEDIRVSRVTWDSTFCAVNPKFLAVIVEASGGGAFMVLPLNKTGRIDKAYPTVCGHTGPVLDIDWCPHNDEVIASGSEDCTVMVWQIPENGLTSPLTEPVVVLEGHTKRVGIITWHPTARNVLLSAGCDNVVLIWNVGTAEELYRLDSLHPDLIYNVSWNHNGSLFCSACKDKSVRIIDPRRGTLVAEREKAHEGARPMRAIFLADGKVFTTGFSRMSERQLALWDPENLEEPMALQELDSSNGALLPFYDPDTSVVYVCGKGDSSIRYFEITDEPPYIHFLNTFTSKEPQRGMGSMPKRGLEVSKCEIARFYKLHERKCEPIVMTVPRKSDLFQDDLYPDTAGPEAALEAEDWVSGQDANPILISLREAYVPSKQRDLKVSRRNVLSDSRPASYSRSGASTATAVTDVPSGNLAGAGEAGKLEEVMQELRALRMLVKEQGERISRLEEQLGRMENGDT
UniProt Q00PI9: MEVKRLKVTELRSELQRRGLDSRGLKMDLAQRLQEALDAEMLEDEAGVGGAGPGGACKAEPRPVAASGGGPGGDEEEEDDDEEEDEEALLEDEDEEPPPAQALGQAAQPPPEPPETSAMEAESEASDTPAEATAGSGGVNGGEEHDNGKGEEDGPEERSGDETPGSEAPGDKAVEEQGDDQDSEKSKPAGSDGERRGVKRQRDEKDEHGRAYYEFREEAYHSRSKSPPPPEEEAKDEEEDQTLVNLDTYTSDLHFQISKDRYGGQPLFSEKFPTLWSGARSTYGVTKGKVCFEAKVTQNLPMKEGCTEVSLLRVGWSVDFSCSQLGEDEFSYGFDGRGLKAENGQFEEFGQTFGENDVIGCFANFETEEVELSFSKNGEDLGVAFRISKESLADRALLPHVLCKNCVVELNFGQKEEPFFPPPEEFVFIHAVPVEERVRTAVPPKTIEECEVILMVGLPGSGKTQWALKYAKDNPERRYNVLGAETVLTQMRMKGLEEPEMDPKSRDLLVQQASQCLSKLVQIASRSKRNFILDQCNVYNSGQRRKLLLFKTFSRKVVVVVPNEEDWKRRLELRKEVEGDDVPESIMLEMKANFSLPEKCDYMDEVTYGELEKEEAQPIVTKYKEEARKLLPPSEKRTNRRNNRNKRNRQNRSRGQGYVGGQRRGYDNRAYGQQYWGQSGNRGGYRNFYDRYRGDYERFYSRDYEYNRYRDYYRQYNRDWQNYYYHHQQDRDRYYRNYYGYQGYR
UniProt O35604, residues 23-1277: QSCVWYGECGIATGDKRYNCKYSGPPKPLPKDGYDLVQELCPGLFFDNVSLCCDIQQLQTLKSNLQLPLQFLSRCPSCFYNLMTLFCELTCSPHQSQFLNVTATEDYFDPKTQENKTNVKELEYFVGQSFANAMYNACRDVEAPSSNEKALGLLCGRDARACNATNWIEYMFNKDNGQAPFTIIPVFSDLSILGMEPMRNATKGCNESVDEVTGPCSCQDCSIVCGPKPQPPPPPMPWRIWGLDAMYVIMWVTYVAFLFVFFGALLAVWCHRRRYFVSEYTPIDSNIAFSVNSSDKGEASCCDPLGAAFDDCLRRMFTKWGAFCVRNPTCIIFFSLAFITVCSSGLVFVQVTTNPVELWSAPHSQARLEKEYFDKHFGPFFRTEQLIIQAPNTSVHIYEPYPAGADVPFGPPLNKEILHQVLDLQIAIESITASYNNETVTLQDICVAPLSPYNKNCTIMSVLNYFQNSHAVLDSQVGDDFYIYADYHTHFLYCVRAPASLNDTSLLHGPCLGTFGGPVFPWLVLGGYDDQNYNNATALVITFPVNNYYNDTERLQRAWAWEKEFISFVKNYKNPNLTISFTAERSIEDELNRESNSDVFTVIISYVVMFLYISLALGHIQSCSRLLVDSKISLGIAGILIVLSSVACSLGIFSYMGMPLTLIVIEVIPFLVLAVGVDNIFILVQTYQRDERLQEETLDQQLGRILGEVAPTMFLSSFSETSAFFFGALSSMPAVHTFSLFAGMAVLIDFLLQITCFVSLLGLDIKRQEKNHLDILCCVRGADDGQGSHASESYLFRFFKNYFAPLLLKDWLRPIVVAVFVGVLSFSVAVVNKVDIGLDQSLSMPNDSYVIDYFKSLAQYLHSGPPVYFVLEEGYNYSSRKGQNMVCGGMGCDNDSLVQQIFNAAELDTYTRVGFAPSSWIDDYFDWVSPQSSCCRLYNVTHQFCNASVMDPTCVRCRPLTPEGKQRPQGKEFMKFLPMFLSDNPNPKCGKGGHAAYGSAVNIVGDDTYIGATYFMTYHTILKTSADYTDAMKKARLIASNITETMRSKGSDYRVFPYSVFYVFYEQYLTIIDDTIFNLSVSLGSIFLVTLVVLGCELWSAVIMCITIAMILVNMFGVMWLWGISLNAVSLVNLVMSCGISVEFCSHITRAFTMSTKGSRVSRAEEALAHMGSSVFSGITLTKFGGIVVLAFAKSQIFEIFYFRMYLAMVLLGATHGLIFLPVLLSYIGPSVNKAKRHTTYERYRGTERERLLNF
UniProt P35293: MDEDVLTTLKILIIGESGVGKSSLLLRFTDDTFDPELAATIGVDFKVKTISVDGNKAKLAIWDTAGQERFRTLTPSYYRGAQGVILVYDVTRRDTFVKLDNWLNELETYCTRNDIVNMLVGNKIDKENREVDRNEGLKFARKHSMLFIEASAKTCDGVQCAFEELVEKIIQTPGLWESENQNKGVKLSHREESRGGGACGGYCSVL
UniProt D4AFX7: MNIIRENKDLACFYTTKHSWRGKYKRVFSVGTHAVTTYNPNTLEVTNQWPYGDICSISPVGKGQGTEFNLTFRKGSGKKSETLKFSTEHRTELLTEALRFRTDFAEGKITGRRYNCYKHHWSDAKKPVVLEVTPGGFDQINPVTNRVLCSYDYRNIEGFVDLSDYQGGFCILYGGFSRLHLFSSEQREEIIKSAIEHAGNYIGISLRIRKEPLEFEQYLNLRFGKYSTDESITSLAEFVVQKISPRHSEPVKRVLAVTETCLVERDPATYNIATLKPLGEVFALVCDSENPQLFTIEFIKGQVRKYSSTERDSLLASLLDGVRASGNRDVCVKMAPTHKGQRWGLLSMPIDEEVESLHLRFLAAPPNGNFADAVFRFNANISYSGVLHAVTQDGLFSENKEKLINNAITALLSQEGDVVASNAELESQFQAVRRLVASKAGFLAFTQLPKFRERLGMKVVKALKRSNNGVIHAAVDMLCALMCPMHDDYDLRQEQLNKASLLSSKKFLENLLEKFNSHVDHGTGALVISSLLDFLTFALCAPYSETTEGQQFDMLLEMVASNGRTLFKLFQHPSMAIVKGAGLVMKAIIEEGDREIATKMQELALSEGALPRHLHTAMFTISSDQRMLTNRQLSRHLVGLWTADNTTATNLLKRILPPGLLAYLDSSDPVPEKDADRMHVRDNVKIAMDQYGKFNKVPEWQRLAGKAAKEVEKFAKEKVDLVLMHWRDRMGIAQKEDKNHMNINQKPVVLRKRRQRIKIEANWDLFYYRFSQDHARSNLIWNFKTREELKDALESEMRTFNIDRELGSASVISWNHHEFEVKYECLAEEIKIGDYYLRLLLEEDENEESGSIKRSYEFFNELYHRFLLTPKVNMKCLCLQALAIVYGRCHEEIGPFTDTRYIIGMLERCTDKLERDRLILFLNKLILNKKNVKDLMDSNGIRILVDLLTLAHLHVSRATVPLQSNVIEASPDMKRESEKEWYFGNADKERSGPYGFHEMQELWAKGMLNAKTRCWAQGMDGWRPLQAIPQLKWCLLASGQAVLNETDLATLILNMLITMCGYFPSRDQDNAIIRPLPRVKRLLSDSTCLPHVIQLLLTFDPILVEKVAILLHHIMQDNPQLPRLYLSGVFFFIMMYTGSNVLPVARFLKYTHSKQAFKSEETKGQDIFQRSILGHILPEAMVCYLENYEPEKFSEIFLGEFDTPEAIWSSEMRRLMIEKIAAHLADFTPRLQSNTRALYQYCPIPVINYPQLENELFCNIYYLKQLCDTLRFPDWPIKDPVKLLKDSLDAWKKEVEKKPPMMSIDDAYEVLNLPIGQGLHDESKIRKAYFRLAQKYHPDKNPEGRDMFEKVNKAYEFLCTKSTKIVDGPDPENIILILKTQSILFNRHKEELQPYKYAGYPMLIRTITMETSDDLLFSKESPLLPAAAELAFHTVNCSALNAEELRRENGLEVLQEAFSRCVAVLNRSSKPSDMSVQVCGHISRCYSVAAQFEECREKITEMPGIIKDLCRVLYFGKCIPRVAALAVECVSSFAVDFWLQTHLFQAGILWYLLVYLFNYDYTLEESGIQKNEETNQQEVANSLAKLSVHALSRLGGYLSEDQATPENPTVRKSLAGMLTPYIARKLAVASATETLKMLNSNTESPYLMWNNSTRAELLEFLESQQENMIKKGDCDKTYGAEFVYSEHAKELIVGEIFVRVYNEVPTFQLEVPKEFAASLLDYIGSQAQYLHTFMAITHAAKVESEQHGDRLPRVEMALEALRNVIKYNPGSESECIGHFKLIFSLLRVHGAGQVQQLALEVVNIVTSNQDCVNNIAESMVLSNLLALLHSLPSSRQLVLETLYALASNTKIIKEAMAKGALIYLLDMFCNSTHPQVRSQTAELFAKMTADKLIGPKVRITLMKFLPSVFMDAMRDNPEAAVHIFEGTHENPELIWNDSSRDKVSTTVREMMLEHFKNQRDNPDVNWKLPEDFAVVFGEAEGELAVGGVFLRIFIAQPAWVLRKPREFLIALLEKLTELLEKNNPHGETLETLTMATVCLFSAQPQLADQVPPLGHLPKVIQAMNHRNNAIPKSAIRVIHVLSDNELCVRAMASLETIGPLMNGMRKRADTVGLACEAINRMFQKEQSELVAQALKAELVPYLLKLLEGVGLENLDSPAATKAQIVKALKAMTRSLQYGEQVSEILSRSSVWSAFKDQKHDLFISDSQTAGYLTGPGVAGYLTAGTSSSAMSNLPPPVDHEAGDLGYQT
UniProt Q8BRF7: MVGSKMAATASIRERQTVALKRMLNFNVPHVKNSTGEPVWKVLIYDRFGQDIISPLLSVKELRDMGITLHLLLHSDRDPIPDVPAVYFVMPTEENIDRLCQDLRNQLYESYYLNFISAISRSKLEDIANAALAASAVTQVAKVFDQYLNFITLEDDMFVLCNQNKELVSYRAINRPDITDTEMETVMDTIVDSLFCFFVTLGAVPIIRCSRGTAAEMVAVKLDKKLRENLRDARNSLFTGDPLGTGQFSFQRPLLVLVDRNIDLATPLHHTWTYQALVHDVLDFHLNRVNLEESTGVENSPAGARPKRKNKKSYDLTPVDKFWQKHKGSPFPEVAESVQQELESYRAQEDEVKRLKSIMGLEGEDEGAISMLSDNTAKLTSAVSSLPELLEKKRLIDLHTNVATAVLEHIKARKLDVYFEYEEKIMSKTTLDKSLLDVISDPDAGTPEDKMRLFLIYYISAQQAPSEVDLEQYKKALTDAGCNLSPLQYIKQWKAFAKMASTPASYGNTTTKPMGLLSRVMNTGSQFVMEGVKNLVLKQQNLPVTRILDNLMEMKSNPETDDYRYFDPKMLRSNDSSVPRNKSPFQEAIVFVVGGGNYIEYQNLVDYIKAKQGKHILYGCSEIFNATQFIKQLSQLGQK

T2: GST-A2AR^284–410 (C-terminus of mouse adenosine A2A receptor fused to GST) (mouse) (UniProt Q60613)
T2 sequence: T1 sequence

B1: Coatomer subunit gamma-2 (protein, UniProt Q9QXK3 1-871)
chain: MIKKFDKKDEESGSGSNPFQHLEKSAVLQEARIFNETPINPRRCLHILTKILYLLNQGEHFGTMEATEAFFAMTRLFQSNDQTLRRMCYLTIKEMATISEDVIIVTSSLTKDMTGKEDVYRGPAIRALCRITDGTMLQAVERYMKQAIVDKVSSVASSALVSSLHMMKISYDVVKRWINEAQEAASSDNIMVQYHALGVLYHLRKNDRLAVSKMLNKFTKSGLKSQFAYCMLIRIASRLLKESEDGHESPLFDFIESCLRNKHEMVIYEAASAIIHLPNCTARELAPAVSVLQLFCSSPKPALRYAAVRTLNKVAMKHPSAVTACNLDLENLITDSNRSIATLAITTLLKTGSESSVDRLMKQISSFVSEISDEFKVVVVQAISALCHKYPRKHSVMMTFLSNMLRDDGGFEYKKAIVDCIISIVEENPESKEAGLAHLCEFIEDCEHTVLATKILHLLGKEGPRTPVPSKYIRFIFNRVVLENEAVRAAAVSALAKFGAQNESLLPSILVLLQRCMMDTDDEVRDRATFYLNVLQQRQMALNATYIFNGLTVSIPGMEKALHQYTLEPSEKPFDMKSIPLAMAPVFEQKSEITLVTPKPEKLAPSRQDIFQEQLAAIPEFMNLGPLFKSSEPVQLTEAETEYFVRCVKHMFTDHIVFQFDCTNTLNDQLLEKVTVQMEPSDSYEVLCCIPAPSLPYNQPGICYTLVRLPDEDPTAVAGTFSCTMKFTVRDCDPNTGVPDEDGYDDEYVLEDLEVTVSDHIQKILKPNFAAAWEEVGDAFEKEETFALSSTKTLEEAVNNIITFLGMQPCERSDKVPENKNSHSLYLAGVYRGGYDLLVRSRLALADGVTMQVTVRSKERTPVDVILASVG
B2: Monoacylglycerol lipase ABHD12n (enzyme, UniProt Q99LR1 1-398)
chain: MRKRTEPVTLEHERCAASGSSSSGSAAAALDADCSLKQNLRLAGKGTAEPHSASDAGMKRALGRRKSLWFRLRKILLCVLGFYIAIPFLVKLCPGIQAKLIFLNFVRVPYFIDLKKPQDQGLNHTCNYYLQPEDDVTIGVWHTIPSVWWKNAQGKDQMWYEDALASNHAIILYLHGNAGTRGGDHRVELYKVLSSLGYHVVTFDYRGWGDSVGTPSERGMTYDALHVFDWIKARSGDNPVYIWGHSLGTGVATNLVRRLCERETPPDALILESPFTNIREEAKSHPFSVIYRYFPGFDWFFLDPITSSGIKFANDENMKHISCPLLILHAEDDPVVPFHLGRKLYNIAAPSRSFRDFKVQFIPFHSDLGYRHKYIYKSPELPRILREFLGKSEPERQH
B3: RUN and FYVE domain containing protein (protein, UniProt Q8BIJ7 1-712)
chain: MAARGECRRAGQDSEPEPEREPESEPGPEPEPQAGLESGEAFEIVDRSQLPSPGELRSASRPRVADSWSAPILTLARRATGNLSASCGSALRAAAGLGDGGGGGERAASKGQMMEERANLMHMMKLSIKVLLQSALSLGRSLDADYAPLQQFFVVMEHCLKHGLKVKKSFIGQNKSFFGPLELVEKLCPEASDIATSVRNLPELKTAVGRGRAWLYLALMQKKLADYLKVLIDNKQLLSEFYEPEALMMEEEGMVIVGLLVGLNVLDANLCLKGEDLDSQVGVIDFSLCLKDAQDLDSGREHERITDVLDQKNYVEELNRHLSCTVGDLQTKIDGLEKTNSKLQEELSAATDRICSLQKEQQQLREQNEVIRERSEKSVEITKQDTKVELETYKQTRQGLDEMYSDVWKQLKEEKKVRLELEKELELQIGMKTEMEIAMKLLEKDTHEKQDTLVALRQQLEEVKAINLQMFHKVQSAESSLQQKNEAIASFEGKTTQVMSSMKQMEERLQQAERARQAAEERSHKLQQELSGRGSALQLQLSQLRDQCSGLEKELKSEKEQRQALQRELQREKDTSCLLQTELQQVEGLKKELRELQDEKAELRKVCEEQEQALQEMGLHLSQSKLKMEDIKEVNKALKGHTWLKDDEATHCKQCEKDFSISRRKHHCRNCGHIFCNTCSSNELALPSYPKPVRVCDSCHTLLLQRCSSTAS
B4: Myeloid cell nuclear differentiation antigen-like protein (protein, UniProt D0QMC3 1-538)
chain: MAEYKKIVLLKGLESMEDYQFRTVKSLLRKELKLTKKLQEDYDRIQLADWMEDKFPKYAGLDKLIKVCEHIKDLKDLAKKLKTEKAKVQKKKQGKCKTAVKKKGQDELSSSESLFINKESYKSVPSSKKKGKAIAKTEGEKKNKLTQDQDHLPETSGTDIKTEEDCLQNSPKPPPTSPSSSSNKKKRKEITKTEGGKKKKLTQEQAQLPEPLGTDIKKDEDCLQTPPKPPPTPPSSSLNKKRKSRREEETGVKKSKAAKEPDQPPCCEEPTARCQSPILHSSSSASSNIPSATNQKPQPQNQNIPRGAVLHSEPLTVMVLTATDPFEYESPEHEVKNMFHATVATVSQYFHVKVFNINLKEKFTKKNFIIISNYFESKGILEINETSSVLKADPDQMIEVPNNIIRNANASPKICDIQKGTSGAVFYGVFTLHKKKVKTQNTSYEIKDGSGSIEVEGSGQWHNINCKEGDKLHLFCFHLKRERGQPKLVCGDHSFVKIKVTKAGKKKEASTVLSSTKNEEENNYPKDGIKVEMPDYHV
B5: Caprin-1 (protein, UniProt Q60865 1-707)
chain: MPSATSHSGSGSKSSGPPPPSGSSGSEAAAGAAAPASQHPATGTGAVQTEAMKQILGVIDKKLRNLEKKKGKLDDYQERMNKGERLNQDQLDAVSKYQEVTNNLEFAKELQRSFMALSQDIQKTIKKTARREQLMREEAEQKRLKTVLELQYVLDKLGDDDVRTDLKQGLSGVPILSEEELSLLDEFYKLVDPERDMSLRLNEQYEHASIHLWDLLEGKEKPVCGTTYKALKEIVERVFQSNYFDSTHNHQNGLCEEEEAASAPTVEDQVAEAEPEPAEEYTEQSEVESTEYVNRQFMAETQFSSGEKEQVDEWTVETVEVVNSLQQQPQAASPSVPEPHSLTPVAQSDPLVRRQRVQDLMAQMQGPYNFIQDSMLDFENQTLDPAIVSAQPMNPTQNMDMPQLVCPQVHSESRLAQSNQVPVQPEATQVPLVSSTSEGYTASQPLYQPSHATEQRPQKEPMDQIQATISLNTDQTTASSSLPAASQPQVFQAGTSKPLHSSGINVNAAPFQSMQTVFNMNAPVPPANEPETLKQQSQYQATYNQSFSSQPHQVEQTELQQDQLQTVVGTYHGSQDQPHQVPGNHQQPPQQNTGFPRSSQPYYNSRGVSRGGSRGARGLMNGYRGPANGFRGGYDGYRPSFSNTPNSGYSQSQFTAPRDYSGYQRDGYQQNFKRGSGQSGPRGAPRGRGGPPRPNRGMPQMNTQQVN
B6: DNA topoisomerase 1 (enzyme, UniProt Q04750 1-767)
chain: MSGDHLHNDSQIEADFRLNDSHKHKDKHKDREHRHKEHKKDKDKDREKSKHSNSEHKDSEKKHKEKEKTKHKDGSSEKHKDKHKDRDKERRKEEKIRAAGDAKIKKEKENGFSSPPRIKDEPEDDGYFAPPKEDIKPLKRLRDEDDADYKPKKIKTEDIKKEKKRKSEEEEDGKLKKPKNKDKDKKVAEPDNKKKKPKKEEEQKWKWWEEERYPEGIKWKFLEHKGPVFAPPYEPLPESVKFYYDGKVMKLSPKAEEVATFFAKMLDHEYTTKEIFRKNFFKDWRKEMTNDEKNTITNLSKCDFTQMSQYFKAQSEARKQMSKEEKLKIKEENEKLLKEYGFCVMDNHRERIANFKIEPPGLFRGRGNHPKMGMLKRRIMPEDIIINCSKDAKVPSPPPGHKWKEVRHDNKVTWLVSWTENIQGSIKYIMLNPSSRIKGEKDWQKYETARRLKKCVDKIRNQYREDWKSKEMKVRQRAVALYFIDKLALRAGNEKEEGETADTVGCCSLRVEHINLHPELDGQEYVVEFDFPGKDSIRYYNKVPVEKRVFKNLQLFMENKQPEDDLFDRLNTGILNKHLQDLMEGLTAKVFRTYNASITLQQQLKELTAPDENVPAKILSYNRANRAVAILCNHQRAPPKTFEKSMMNLQSKIDAKKDQLADARRDLKSAKADAKVMKDAKTKKVVESKKKAVQRLEEQLMKLEVQATDREENKQIALGTSKLNYLDPRITVAWCKKWGVPIEKIYNKTQREKFAWAIDMTDEDYEF

Legend:
[1] = biological target: T1, cMyc-A2AR^284–410 (C-terminus of mouse adenosine A2A receptor tagged with cMyc epitope) (mouse); assay: affinity purification with mass spectrometry; co-IP of cMyc-A2AR^284–410 with 1 µg anti-cMyc antibody (isotype control IgG1 in parallel) from 500 µg protein extract of transfected RAW 264.7 cells in RIPA buffer diluted with PBS, overnight at 4 °C; SDS-PAGE, trypsin digest, MALDI-TOF mass spectrometry
[2] = biological target: T2, GST-A2AR^284–410 (C-terminus of mouse adenosine A2A receptor fused to GST) (mouse); assay: affinity purification with mass spectrometry; pull-down: 20 µg MagneGST-bound GST-A2AR^284–410 (GST alone in parallel) incubated with 500 µg mouse peritoneal macrophage (IPMФ) lysate overnight at 4 °C; SDS-PAGE, trypsin digest, MALDI-TOF mass spectrometry; only the target purified

Molecule | binding [1] | binding [2]
Alpha glucosidase 2 alpha neutral subunit (from UniProt Q8BHN3-2) (enzyme) | binds | binds
Annexin A5 (from UniProt P48036 1-319) | binds | binds
Cathepsin D (from UniProt P18242) (enzyme) | binds | binds
Chaperone protein DnaJ (from UniProt P63037) | binds | binds
Coronin-1B (from UniProt Q9WUM3 1-484) | binds | binds
Heterogeneous nuclear ribonucleoprotein U-like protein 2 (from UniProt Q00PI9 1-745) | binds | binds
Niemann–Pick C1 protein (mouse, endogenous) (from UniProt O35604 23-1277) | binds | binds
Ras-related protein Rab 18 (from UniProt P35293 1-206) | binds | binds
Receptor mediated endocytosis-8 (from UniProt D4AFX7 1-2248) | binds | binds
Sec1 family domain-containing protein 1 (from UniProt Q8BRF7 1-639) | binds | binds
Serine/threonine-protein phosphatase (mouse (endogenous in RAW 264.7 and IPMФ)) (enzyme) | binds | binds
B1 | binds | binds
B2 | binds | binds
B3 | binds | binds
B4 | binds | binds
B5 | binds | binds
B6 | binds | binds

Reference: publication PMC10297445
